Mtb glucose medium: 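Whole-cell growth test on Mycobacterium tuberculosis, read after 3 days in glucose-containing 7H9 medium; the read-out is not stated. Compounds at 50 µM. Direction is inferred from retests: higher values go with more growth inhibition. About 69,000 compounds were tested under these conditions; 1.1% (about 760) showed 50% or more at least once.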
Mtb cholesterol medium: 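Phenotypic screen: M. tuberculosis growth, cholesterol and DPPC medium, 4 days; the read-out is not stated. Compounds at 50 µM. Higher reads as more growth inhibition (inferred: compounds with an IC50 in retests scored well above the rest). Size under these conditions: about 69,000 compounds, about 370 of them at 50% or above in at least one test.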

Results are given as percent effect. The controls that fix the scale are not given in the record; negative values are as filed. The compounds are a random part of those screened. Two or more numbers in one place are separate tests of the same structure; such repeats can differ widely.

SMILES,Mtb glucose medium,Mtb cholesterol medium
CC(=O)Nc1nc(CN2CCCCC2Cn2cncn2)cs1 (stereo unspecified),1.924%,-8.317%
Cc1nc(CNC(=O)NC2CCCN(c3ncccn3)C2)cs1 (stereo unspecified),-16.29%,-12.68%
CCC1c2ccccc2CCN1C(=O)c1ccc(OC)nn1 (stereo unspecified),9.214% and -20.33%,-0.7414% and 3.581%
N#Cc1cccc(CN2CCCC2Cn2cccn2)c1 (stereo unspecified),1.877% and -41.79%,-6.865%
COc1cc(NC2CCCNC2)cc(OC)c1 (stereo unspecified),-0.5347%,5.638%
CCc1noc(CNc2ccc(CC(=O)N3CCSCC3)cc2)n1,5.659%,3.071% and -6.183%
CCc1nc(C2CCCN2C(=O)CCc2ccc3c(c2)OCO3)no1 (stereo unspecified),30.65%,3.417%
CCNc1ncc2c(n1)CN(c1ccc(OC(F)(F)F)cc1)C2=O,26.23%,8.315%
Cn1c(=O)c2c(c3ccccc31)OC(C)(C)CC2,7.633% and 19.54%,11.98%
CCCC(C(=O)NC1CCN(S(C)(=O)=O)CC1)c1ccccc1 (stereo unspecified),22.37%,-10.8%
CCn1c(N)nc2cc(C(=O)NCc3cccc(C)c3C)cnc21,-60.02%,-48.05%
CCN(CC)Cc1ccc(C(=O)N2CCCC2c2cnn(C)c2)o1 (stereo unspecified),-5.475%,-2.782%
CS(=O)(=O)NCC1CCCN(C(=O)c2ccc(Cl)o2)C1 (stereo unspecified),-25.65%,-25.48%
CCc1nc(-c2ccc(NC(=O)N3CCOCC3)cc2)no1,17.31%,7.722%
CCOC1CC2(CCN(C(=O)Cc3ccccn3)CC2)C1.O=C(O)C(F)(F)F,-16.05%,-2.81%
Cc1cnn(CCCN2C(=O)CCc3ccccc32)c1,-46.53%,-15.87%
Cc1ncsc1C(=O)N1CCC(O)(CN2CCc3ccccc3C2)C1 (stereo unspecified),-32.77%,-18.57%
COCC(=O)N1CCCC1c1nccnc1Nc1ncccn1 (stereo unspecified),22.16%,-10.9%
O=C(O)C(F)(F)F.c1csc(CN2CCc3onc(Cn4cccc4)c3C2)c1,-27.49% and 2.416%,-8.793%
CN(C)CCCC(=O)NC1CC(C)(C)Cc2nc(C(C)(C)C)ncc21 (stereo unspecified),-6.762%,-13.99%
CCOCC(=O)N1CCC(Oc2ccc(C(F)(F)F)cn2)CC1,24.92%,10.25%
CC(NC(=O)NCCCc1n[nH]c(N)c1C#N)c1ccccc1F (stereo unspecified),-30.35%,-7.072%
CS(=O)(=O)N1CCCC(Cc2cncc(Br)c2)CC1 (stereo unspecified),18.77%,-4.664%
[H][C@]12CCN(C(=O)c3cc(C)oc3C)C[C@@]1([H])OCCN(S(C)(=O)=O)C2,-10.2%,-15.85%
COCCNC(=O)Nc1cc2c(cc1SC)OCCO2,-29.01%,-6.657%
Cc1cc(C)c(CNC(=O)NC2CCN(C(=O)C(C)C)CC2)c(C)c1,9.697%,4.391%
O=C(O)C(F)(F)F.O=C(O)C(F)(F)F.O=C(O)C(F)(F)F.[H][C@@]12COC[C@H](N3CCN(C)CC3)[C@]1([H])CN(Cc1ccc(OC)cc1)C2,-6.091%,-2.02% and -28.42%
CCOc1ccc(C(F)(F)F)cc1NCc1nc(C)c(C)o1,29.9%,21.17%
CCc1ccccc1OC1CN(C(=O)CN(C)Cc2ccncc2)C1,1.672%,1.162%
COCC1CN(Cc2ccsc2)Cc2nn(C)cc21.O=C(O)C(F)(F)F (stereo unspecified),-45.35%,-29.92%
Cc1ccoc1C(=O)NCC(c1ccccc1Cl)N1CCOCC1 (stereo unspecified),8.088% and -4.78%,-5.624%
CCC(NCCn1cc(C)cn1)C(=O)Nc1cc(C)on1 (stereo unspecified),-3.066% and 8.343%,-21.4%
CC(C)c1nnc(NC(=O)CCc2cc(F)ccc2F)[nH]1,-30.75%,-36.04%
[H][C@]12CC[C@]([H])(CN(c3cnccn3)C1)N(C(=O)c1cnc(C)cn1)C2,12.37%,-3.337% and -7.993%
Cc1nc(CN2C(=O)CCC23CCN(Cc2cccn2C)CC3)cs1.O=C(O)C(F)(F)F.O=C(O)C(F)(F)F,1.482%,-15.15%
COc1ccc(CCN)cc1-c1ccc(S(C)(=O)=O)cc1,4.605%,-20.51%
COc1ccccc1OCCN1CCCCC1Cn1cncn1 (stereo unspecified),17.26%,-22.41%
Cc1ccc(C(=O)N2Cc3ccccc3C2)cc1N1CCNC1=O,-3.445%,8.454%
COc1ncccc1CN1Cc2nnn(C)c2C(COCC2CC2)C1.O=C(O)C(F)(F)F.O=C(O)C(F)(F)F (stereo unspecified),-0.5104%,-9.707%
Cc1ccc(C)c(NC(=O)N2C[C@H](N(C)C)C[C@H]2CO)c1,-7.121%,-5.483%
CC(C)C[C@H](NC(=O)c1cc(-c2cccn2C)n[nH]1)C(N)=O,9.533% and 0.6249%,-9.603%
COc1cc(CNC(=O)C2CC(=O)N(C(C)C)C2)ccn1 (stereo unspecified),-22.29%,-22.86%
[H][C@@]12CN(C(=O)c3cccc(C)n3)C[C@]1([H])OCCN2c1ccc(C)nn1,-14.96%,-18.87%
O=C(NCCC1COc2ccccc2O1)c1ccc(-c2cc[nH]n2)nc1 (stereo unspecified),-9.232%,17.7%
[H][C@]12CC[C@]([H])(CN(Cc3ccncc3)C1)N(S(C)(=O)=O)C2,-17.46%,1.206%
[H][C@@]12CCN(C(=O)N(C)C)[C@]1([H])CC[C@H](C(=O)NC)O2,-1.963% and 8.875%,13.63%
CCN(C)Cc1cccc(CNC(=O)CSCc2ccncc2)c1,-17.45%,5.061%
CCc1nc(C2CCCN2C(=O)CCNS(C)(=O)=O)no1 (stereo unspecified),-0.2517%,-5.409%
CCOc1ccc(-c2ccnc(C3CC3)n2)cc1C(=O)O,-2.758%,11.06%
CC(C)(C)C1CCC(NCCN2CCOCC2)CC1 (stereo unspecified),14.44%,-7.909%
Cc1nc(CN2CCC3(C2)CN(C(=O)c2ccc[nH]2)C3)cs1,-10.59%,2.255%
COc1ccsc1C(=O)Nc1cc(Br)c(=O)n(C)c1,20.48%,-2.369%
O=C(O)C(F)(F)F.[H][C@@]12COC[C@]1(CNC(=O)C1CC1)CN(Cc1cccc(OC)c1)C2,22.61%,-1.58%
Cc1cccc(C(=O)N2CCC3(CCN(c4cnn(C)c4)C3=O)C2)n1.O=C(O)C(F)(F)F (stereo unspecified),-19.95%,-2.752%
CCN1CCCC1CNC(=O)Cc1c(C)n[nH]c1-c1ccc(OC)cc1 (stereo unspecified),-14.93% and 6.479%,-14.22%
N#Cc1cccc(-c2ncnn2CC2(O)CCCCC2)c1,-22.06% and 6.448%,2.566%
O=C(O)C(F)(F)F.O=C(O)C(F)(F)F.O=C(O)C(F)(F)F.[H][C@@]12CO[C@@H](CN(C)Cc3cccnc3)[C@]1([H])CCN(Cc1ccco1)C2,-42.35% and -6.159%,-4.455% and -11.5%
CCn1ccnc1C1CCCN(C(=O)c2sc(C)nc2C)C1 (stereo unspecified),-6.782%,-1.326% and 7.382%
CCN(Cc1c(C)nn(C)c1C)C(=O)C1COc2ccccc2C1 (stereo unspecified),-25.62% and 1.365%,-11.94% and -1.992%
O=C(c1c[nH]c(=O)c(Cl)c1)N1CCc2ccccc2C1,-8.461% and 0.03526%,-13.52%
Cc1nn(C)c2c(NCCCn3cccn3)ncnc12,33.89%,3.773%
Cc1ccc(CN2CCc3ncnc(C4CCOC4)c3CC2)s1.O=C(O)C(F)(F)F (stereo unspecified),-1.626%,-2.213%

Some entries from above, unchanged:

SMILES,Mtb glucose medium,Mtb cholesterol medium
Cc1nc(CNC(=O)NC2CCCN(c3ncccn3)C2)cs1 (stereo unspecified),-16.29%,-12.68%
CCC(NCCn1cc(C)cn1)C(=O)Nc1cc(C)on1 (stereo unspecified),-3.066% and 8.343%,-21.4%
CCOCC(=O)N1CCC(Oc2ccc(C(F)(F)F)cn2)CC1,24.92%,10.25%
COc1cc(CNC(=O)C2CC(=O)N(C(C)C)C2)ccn1 (stereo unspecified),-22.29%,-22.86%
CC(NC(=O)NCCCc1n[nH]c(N)c1C#N)c1ccccc1F (stereo unspecified),-30.35%,-7.072%

Data taken from ChEMBL document CHEMBL3988442, “University of Dundee, Small-Polar-MMV Screening Library” (2021).